Converted amounts (≈) assume the structure as drawn.

The nature of data set [1]: Cytotoxicity on THP-1 cells. The class given is cell-based. The following applies: human, THP-1 cells (KSHV-negative macrophage cell line).
A short description of data set [2]: Cytotoxicity on HUVEC cells. The class given is cell-based. The following applies: human, HUVEC cells (primary human umbilical cord endothelial cells).
Data set [3] relates to latent KSHV DNA in BC3 cells. Description: qPCR detection of latent KSHV DNA. The class given is cell-based, Kaposi Sarcoma Herpesvirus (KSHV). In general terms: In qPCR the cycle at which signal appears reflects the starting amount.
Data set [4] in a line: Cytotoxicity on BC3 cells. The class given is cell-based. The following applies: human.

For the compound `Nc1ccc(S(N)(=O)=O)cc1` [SA4, sulfanilamide], the CC50 (commonly the concentration that lowers cell viability or growth by half) at 6 days came to 125 ± 31 µg/mL (≈ 726 µM) in data set [1], 250 ± 125 µg/mL (≈ 1450 µM) in data set [2] and 100 ± 50 µg/mL (≈ 581 µM) in data set [4]. In data set [3], the “SI (CC50/EC50)” value is 12.5.

As to `Cc1cc(NS(=O)(=O)c2ccc(N)cc2)no1` [BC6, sulfamethoxazole], the CC50 at 6 days was determined as 125 ± 62 µg/mL (≈ 494 µM) in data set [1], 125 ± 31 µg/mL (≈ 494 µM) in data set [2] and 100 ± 12 µg/mL (≈ 395 µM) in data set [4].

The values above are taken from paper PMC6002838 (The Journal of antibiotics, 2017).
